Measurements: PubChem BioAssay AID588499 (NMMLSC, 2011)
Hit rate of the full screen: of about 360,000 compounds, about 610 (0.17%) were called active. The shares of active, inactive and inconclusive entries below differ from those in the screen. Cut-off read from the data, not from the text of the source: active = inhibition above about 30%; inconclusive = no clear call, values can overlap the other calls; inactive = below that.

test system: Botulinum neurotoxin type A light chain protease (Clostridium botulinum A str. ATCC 3502); assay: blockers of BoNT/A LC substrate cleavage – biochemical, flow cytometry, MLPCN library, primary screen (AID 588499); conditions: multiplex microsphere protease substrate cleavage, at 10 µM, active compounds read high; note: plate controls were buffer without enzyme for full effect and enzyme alone for no effect

Row | Compound | inhibition
1 | Cc1oc(-c2ccc(Cl)cc2)cc1C(=O)O | inconclusive: 5.4%
2 | CC(C)[C@H](NC(=O)c1cccc(CN(Cc2ccccc2)C(=O)c2ccccc2)c1)C(=O)O | inconclusive: 8.7%
3 | Cc1occc1C(=O)Nc1ccc2c(c1)OCCO2 | inconclusive: 2.5%
4 | O=c1c([N+](=O)[O-])cccn1Cc1cccc(Br)c1 | inactive: 0%
5 | CC(C)N(CC#CC(O)(c1ccccc1)c1ccccc1)C(C)C | inconclusive: -42.3%
6 | N#C/C(=C/C=C/c1ccccc1)C(=O)Nc1ccccc1 | inconclusive: -7.4%
7 | O=C(Oc1cccc(C(=O)N2CCOCC2)c1)c1ccc(Br)cc1 | inconclusive: -4.7%
8 | CCc1ccccc1N1CN(Cc2cccnc2)CNC1=S | inconclusive: -5.9%
9 | Cc1cc(Br)ccc1NC(=O)CN(C)C(=O)c1ccc2ccccc2n1 | inactive: -3.1%
10 | COc1cc(/C=C2\SC(=S)N(CC(=O)Nc3ccccn3)C2=O)cc(OC)c1OC | active: 38.6%
11 | O=C(O)C1CCCN1C(=O)OCC1c2ccccc2-c2ccccc21 (stereo unspecified) | inconclusive: 10.6%
12 | Cc1cc2nc(-c3cccc(NC(=O)c4ccc(Br)o4)c3C)oc2cc1C | inconclusive: 2.9%
13 | CCOC(=O)c1c(C)oc2c1c(C(c1ccccc1)N1CCOCC1)c(O)c1ccccc12 (stereo unspecified) | inconclusive: 6.3%
14 | O=C(Cc1ccccc1)N1CCC(c2ccccc2)C1 (stereo unspecified) | inconclusive: -51.5%
15 | Cn1ccnc1SCC(=O)Nc1ccc(Oc2ccccc2)cc1 | inactive: 0.1%
16 | COc1ccc(CN2CCN(CC3CC3)CC2CCO)cc1C (stereo unspecified) | inconclusive: -2.5%
17 | CCCCOC(=O)CNc1n[nH]c(=S)[nH]c1=O | inconclusive: 5%
18 | COc1cc(/C=N/N2C(=O)C3C4C=CC(CC4)C3C2=O)ccc1O (stereo unspecified) | inactive: -0.1%
19 | CCN(CC)C(=O)c1sc(N2C(=O)Nc3ccccc3N2O)c(C(=O)OC)c1C | inactive: -0.2%
20 | COC(=O)c1ccc2c(=O)n(CCCCCC(=O)NC(C)C)c(=O)[nH]c2c1 | inactive: -0.2%
21 | C[C@]12CS(=O)(=O)C[C@H]1SC(=S)N2c1ccccc1 | inconclusive: -19.6%
22 | CCOC(=O)N1CCN(C(=O)c2cn(C)c3ccc(S(=O)(=O)N4CCCC4)cc3c2=O)CC1 | inconclusive: 2.7%
23 | C=CCN(c1ccccc1)S(=O)(=O)c1cccc(C(=O)NCC(c2ccc(F)cc2)N2CCOCC2)c1 (stereo unspecified) | inconclusive: 8.8%

Row | Compound | inhibition
24 | O=C(Cn1ccc2ccccc2c1=O)NCCC(=O)Nc1ccc2c(c1)OCCO2 | inconclusive: 0.3%
25 | CCN(C(=O)CN1CCC(C(=O)OC)CC1)c1c(N)n(Cc2ccccc2)c(=O)[nH]c1=O | inactive: -0.1%
26 | CCn1c(CNC(=O)c2ccco2)nnc1SCC(=O)Nc1cc(C)c(C)cc1Br | inconclusive: -0.1%
27 | CC12CC3CC(C)(C1)CC(C(=O)Nc1nn[nH]n1)(C3)C2 | inconclusive: 5.3%
28 | FC(F)(F)c1nc(Sc2ncccc2C(F)(F)F)n[nH]1 | inconclusive: 14.2%
29 | CCCc1ccc(OCCNC(=O)c2ccccc2Br)cc1 | inconclusive: 8.3%
30 | CCOC(=O)[C@]12CCCC=C1N(Cc1ccco1)C(=O)[C@H](CC(=O)NCc1cccc(C(F)(F)F)c1)C2 | inactive: -0.4%
31 | O=C(c1cccc(F)c1)N1CCN(c2cc(N3CCCCC3)c(F)cc2[N+](=O)[O-])CC1 | inactive: 2.6%
32 | CCCCC(O)(CCCC)C(=O)N/N=C(\C)c1ccc(Cl)cc1 | inconclusive: 0.9%
33 | Cc1ccc(OCCC(=O)NNC(=O)c2nn(C)c(=O)c3ccccc23)cc1 | inactive: -0.8%
34 | CCC1(CC)NC(=O)N(CC(=O)OCC(=O)Nc2ccc(OC(F)(F)F)cc2)C1=O | inactive: 4%
35 | Cc1ccc(SCCSc2ncccn2)cc1 | inconclusive: -4.1%
36 | CC1(C(=O)NS(=O)(=O)c2ccc(C#N)cc2)CCN1C(=O)C1(c2ccccc2)CC1 (stereo unspecified) | inactive: -0.2%
37 | O=C(c1ccccc1)N1CCn2c(nc3ccccc32)C1 | inconclusive: 2.2%
38 | COc1ccc2c(c1)c(-c1csc(N)n1)c(C)n2C | inconclusive: 3.1%
39 | O=C(NC1CCN(Cc2ccccc2)CC1)c1ccc(S(=O)(=O)NCc2ccco2)cc1 | inactive: -0.6%
40 | CCCCn1nnnc1C(c1ccccc1)N1CCN(c2ccc(C(F)(F)F)cc2[N+](=O)[O-])CC1 (stereo unspecified) | inactive: -0.4%
41 | CCN(CC)S(=O)(=O)c1ccc(F)cc1 | inconclusive: -3%
42 | Cc1cccc(OCCSc2nnc(-c3ccoc3C)n2C)c1 | inconclusive: 2.6%
43 | CC(C)(O)C#Cc1ccc(CNC[C@H]2O[C@@H](n3cnc(C(N)=O)n3)[C@H](O)[C@@H]2O)s1 | inactive: 0%
44 | Cn1c(=O)c2cc(NC(=O)Nc3cccnc3)ccc2n1-c1ccc(C(C)(C)C)cc1 | inactive: -0.3%
45 | O=C(C[C@H]1C[C@H](C(=O)N2CCCCC2)[C@@]2(CCc3ccccc3)c3[nH]c4ccc(Cl)cc4c3CCN2C1=O)NCCC1=CCCCC1 | inactive: 0%
46 | c1ccc(-c2noc(-c3ccc4ccccc4c3)n2)nc1 | inactive: -1.6%

Row | Compound | inhibition
47 | O=C(CSc1ncnc2sccc12)Nc1ccc(S(=O)(=O)N2CCOCC2)cc1 | inconclusive: -8.1%
48 | CCN1CCN(C(=O)c2ccccc2N(Cc2ccccc2)S(=O)(=O)c2ccc(C)cc2)CC1 | inconclusive: 1.4%
49 | Clc1ccccc1CN(Cc1ccco1)Cc1nnnn1C1CCCC1 | inactive: 0.1%
50 | Cc1nn(C)c(C(=O)NC(=S)Nc2ccc([N+](=O)[O-])cc2)c1Cl | inconclusive: -1.9%
51 | O=C(NC1CCCC1)c1ccc(Br)s1 | inconclusive: -3.9%
52 | CCOc1ccc(CCNC(=O)CS(=O)Cc2nc(-c3ccccc3C)oc2C)cc1OCC (stereo unspecified) | inactive: -48.8%
53 | CCc1c(C(=O)NCCc2ccc(OC)c(OC)c2)[nH]c(C)c1C(C)=O | inconclusive: -2%
54 | Cc1cc2ncc(-c3cccs3)nc2cc1C | inactive: 1.7%
55 | COc1ccc(Cl)cc1S(=O)(=O)n1c([N+](=O)[O-])cnc1C | inconclusive: 1.7%
56 | CC(NC(=O)N1CCN(c2ccccc2F)CC1)c1ccc(F)c(F)c1 (stereo unspecified) | inactive: -2.8%
57 | O=C(Cn1nc(Cl)nc1Cl)c1ccccc1 | inactive: -2.1%
58 | CCOC(=O)c1nnn2c1nc(N1CCCCC1)c1ccccc12 | inconclusive: 2%
59 | COC(=O)C1(S(=O)(=O)C2(C(=O)OC)CCCC2)CCCC1 | inconclusive: 3.4%
60 | CCn1c(CCn2ccnc2C)n[nH]c1=S | inconclusive: 8.9%
61 | CCCNC(=O)c1c(N)n(-c2cccc(OC)c2)c2nc3ccccc3nc12 | inconclusive: 14.4%
62 | COc1ccc(CN/C=C2\CCCCC2=O)cc1 | inconclusive: -4.4%
63 | COc1ccc(C2C(Oc3ccccc3)C(=O)N2c2ccc(C)c(C)c2)cc1OC (stereo unspecified) | inactive: -0.6%
64 | COc1ccc(-c2cnc(C(N)=O)c(=O)[nH]2)cc1 | inactive: 3.1%
65 | O=C1C=C(c2ccccc2)CO1 | inactive: -0.1%
66 | CCOc1cc(C(=O)Nc2ccc(C(=O)NCCN(CC)CC)cc2)ccc1OCC(=O)N1CCOCC1 | inactive: 0.1%
67 | N#CCCN(Cc1ccccc1)C(=S)NC(=O)c1ccccc1 | inconclusive: 3%
68 | CCCCC/C=C/C1=CC(=O)C[C@H](c2ccc(OC)cc2)C1 | inactive: -0.9%
69 | O=C(NNC(=S)NC(=O)c1cccc([N+](=O)[O-])c1)c1ccc(O)cc1 | inactive: 1.4%

Molecules above with a CF3 group, in the order listed:
Row | Compound | inhibition
28 | FC(F)(F)c1nc(Sc2ncccc2C(F)(F)F)n[nH]1 | inconclusive: 14.2%
30 | CCOC(=O)[C@]12CCCC=C1N(Cc1ccco1)C(=O)[C@H](CC(=O)NCc1cccc(C(F)(F)F)c1)C2 | inactive: -0.4%
34 | CCC1(CC)NC(=O)N(CC(=O)OCC(=O)Nc2ccc(OC(F)(F)F)cc2)C1=O | inactive: 4%
40 | CCCCn1nnnc1C(c1ccccc1)N1CCN(c2ccc(C(F)(F)F)cc2[N+](=O)[O-])CC1 (stereo unspecified) | inactive: -0.4%

Additional entries follow:

Row | Compound | inhibition
70 | CN(c1ccccc1)S(=O)(=O)c1cccc(NC(=O)Cn2cnc3ccccc3c2=O)c1 | inactive: -1.2%
71 | O=C(c1ccc2c3n(nc2c1)-c1ccccc1CO3)N1CCOCC1 | inactive: 0.2%
72 | CCC1(c2ccccc2)SC(=O)NC1=O (stereo unspecified) | inactive: -0.6%
73 | COc1ccccc1Cn1[nH]nnc1=S | inconclusive: 10.2%
74 | CC1CCN(CC(=O)N2CC(=O)Nc3ccccc32)CC1 | inconclusive: 0%
75 | CCCNC(=O)N[C@@H](Cc1ccccc1)C(=O)OC | inconclusive: 0.1%
76 | Cc1cc2occ(CC(=O)Nc3nccs3)c2cc1C(C)C | inconclusive: 2.3%
77 | CCC(NC(=O)COc1cc2c(c3oc(=O)c(C)c(C)c13)CCC(C)(C)O2)C(=O)O (stereo unspecified) | inactive: 0.2%
78 | COc1cc(OC)cc(C(=O)NCc2ccc3c(c2)cc(C)n3C)c1 | active: 73.1%
79 | CCC1(C)Cc2c(sc3nnn(CC(=O)Nc4ccccc4)c(=O)c23)CO1 (stereo unspecified) | inconclusive: 2%
80 | Cn1c(SCc2ccccc2)nnc1-c1ccncc1 | inconclusive: 1.5%
81 | O=C(CCSc1ccccc1)N1CCN(C(=O)c2ccco2)CC1 | inconclusive: -0.3%
82 | Cc1cc(-c2onc(C)c2C(=O)Oc2ccc(Cl)cc2)no1 | inconclusive: -12.8%
83 | CCOC(=O)c1c(C)[nH]c(C)c1C(=O)COC(=O)c1ccc(S(=O)(=O)N(CC)CC)cc1 | inconclusive: -3.2%
84 | C=CCSc1nc(Cc2ccc(Cl)cc2)nc2ccccc12 | inconclusive: -2.1%
85 | CCc1ccc2[nH]c(=O)c(CN(Cc3ccccc3OC)C(=O)Nc3ccccc3OC)cc2c1 | inconclusive: 1.2%
86 | Cc1cccc(NC(=O)NCc2ccc3[nH]c(C)cc3c2)c1 | active: 49.5%
87 | Cc1onc(-c2ccccc2)c1C(=O)NC(=S)NNC(=O)c1ccccc1O | inactive: -0.7%
88 | CCN(CC)C(=O)c1ccc(NC(=O)c2cccc(S(=O)(=O)N3CCN(Cc4ccccc4)CC3)c2)cc1 | active: 57.4%
89 | Cc1cc(NS(=O)(=O)c2ccc(CC(C)C)cc2)no1 | inactive: 2.6%
90 | CC1=C(C(=O)N2CCCCCC2)C2(CCC(C)CC2)OC1=O (stereo unspecified) | inconclusive: -1.3%
91 | COc1ccccc1C1OC(c2cccc([N+](=O)[O-])c2)=NN1C(C)=O (stereo unspecified) | inactive: 0.4%
